## Drug screen on melanoma cell lines: apoptosis marker

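Human melanoma cell lines in 1,536-well plates were treated with two drugs together for 72 h, then fixed, stained and imaged. The read-out is the fraction of cleaved-PARP-positive nuclei, in % of that fraction in the DMSO control; 200 means twice the control level of this apoptosis marker. Concentrations were fixed for each drug; these are the higher of two levels. These are primary screening values without error estimates. Basal and induced levels differ widely between cell lines.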
This is part of the screen, not chosen by result.
An entry leaves out what has no value listed here.

Every entry is a combination with GW9662 at 10 µM: O=C(Nc1ccccc1)c1cc([N+](=O)[O-])ccc1Cl

For Cn1c(Nc2ccc(C(F)(F)F)cc2)nc2cc(Oc3ccnc(-c4ncc(C(F)(F)F)[nH]4)c3)ccc21 at 0.4 µM the values were MZ2-MEL: 217; UACC-62: 488; IPC-298: 84.9; WM1745: 172; LOX IMVI: 147; WM3619: 294.
For CC(C)C[C@H](NC(=O)[C@H](Cc1ccccc1)NC(=O)c1cnccn1)B(O)O at 0.005 µM the values were MZ2-MEL: 10800; UACC-62: 399; IPC-298: 1920; LOX IMVI: 1030; WM3619: 2240.
For CCN(CC)CCNC(=O)c1c(C)[nH]c(/C=C2\C(=O)Nc3ccc(F)cc32)c1C at 2 µM the values were UACC-62: 192; IPC-298: 40.0; LOX IMVI: 121; WM3619: 155.
For O=c1cc(-c2cccc3c2Sc2ccccc2S3)oc(N2CCOCC2)c1 at 5 µM the values were MZ2-MEL: 180; UACC-62: 95.4; IPC-298: 46.5; WM1745: 261; LOX IMVI: 87.9; WM3619: 148.
For COc1cc(N2CCC(N3CCN(C)CC3)CC2)ccc1Nc1ncc(Cl)c(Nc2ccccc2S(=O)(=O)C(C)C)n1 at 0.4 µM the values were MZ2-MEL: 1550; UACC-62: 233; IPC-298: 25.0; WM1745: 331; LOX IMVI: 131; WM3619: 150.
For Nc1ccn([C@@H]2O[C@H](CO)[C@@H](O)C2(F)F)c(=O)n1 at 0.002 µM the values were UACC-62: 419; IPC-298: 114; LOX IMVI: 121; WM3619: 231.
For Cc1cc(SCc2sc(-c3ccc(C(F)(F)F)c(F)c3)nc2C)ccc1OCC(=O)O at 10 µM the values were MZ2-MEL: 212; UACC-62: 219; IPC-298: 131; WM1745: 142; LOX IMVI: 182; WM3619: 166.
For O=C(O)c1ccc2c(c1)nc(Nc1cccc(Cl)c1)c1ccncc12 at 2 µM the values were MZ2-MEL: 805; UACC-62: 433; IPC-298: 31.3; LOX IMVI: 152; WM3619: 172.
For NCC(=O)Nc1ccc(-n2nc(C(F)(F)F)cc2-c2ccc3c(ccc4ccccc43)c2)cc1 at 5 µM the values were MZ2-MEL: 156; UACC-62: 340; IPC-298: 496; WM1745: 129; LOX IMVI: 83.6; WM3619: 185.
For NC(=O)c1ccc(N(C(N)=O)c2c(F)cccc2F)nc1-c1ccc(F)cc1F at 2 µM the values were MZ2-MEL: 130; UACC-62: 211; IPC-298: 41.5; LOX IMVI: 192; WM3619: 145.
For CCCCCCCCCCCC1=C(O)C(=O)C=C(O)C1=O at 6 µM the values were MZ2-MEL: 96.6; UACC-62: 54.5; IPC-298: 94.4; WM1745: 151; LOX IMVI: 55.6; WM3619: 166.
For O=C(Nc1cc(C(F)(F)F)cc(C(F)(F)F)c1)c1cc(Cl)ccc1O at 0.08 µM the values were MZ2-MEL: 142; UACC-62: 196; IPC-298: 193; LOX IMVI: 553; WM3619: 130.
For Oc1cc(-c2nc(-c3ccccc3)[nH]c2-c2ccncc2)ccc1Cl at 1 µM the values were MZ2-MEL: 122; UACC-62: 1610; IPC-298: 63.0; WM1745: 217; LOX IMVI: 26.2; WM3619: 182.
For C[C@@H](Oc1cc(-c2cnn(C3CCNCC3)c2)cnc1N)c1c(Cl)ccc(F)c1Cl at 1 µM the values were UACC-62: 188; IPC-298: 171; LOX IMVI: 40.3; WM3619: 229.
For Cc1ccc(NC(=O)c2cccc(N(C)C)c2)cc1NC(=O)c1ccc(O)cc1 at 10 µM the values were MZ2-MEL: 146; UACC-62: 85.9; IPC-298: 20.8; WM1745: 169; LOX IMVI: 14.5; WM3619: 159.
For CC(=O)c1c(C)c2cnc(Nc3ccc(N4CCNCC4)cn3)nc2n(C2CCCC2)c1=O at 0.2 µM the values were MZ2-MEL: 142; UACC-62: 356; IPC-298: 43.5; LOX IMVI: 225; WM3619: 144.
For C[C@]1(O)C[C@@H](c2nc(-c3ccc4ccc(-c5ccccc5)nc4c3)c3c(N)nccn32)C1 at 2 µM the values were MZ2-MEL: 252; UACC-62: 256; IPC-298: 120; LOX IMVI: 113; WM3619: 164.
For Cn1cnc2c(F)c(Nc3ccc(Br)cc3Cl)c(C(=O)NOCCO)cc21 at 0.075 µM the values were MZ2-MEL: 423; UACC-62: 507; IPC-298: 295; LOX IMVI: 135; WM3619: 219.
For COc1ccc(-c2ccc3c(N4CCOCC4)nc(N4C[C@@H](C)O[C@@H](C)C4)nc3n2)cc1CO at 0.1 µM the values were UACC-62: 37.9; IPC-298: 46.8; WM1745: 131; LOX IMVI: 215; WM3619: 189.
For O=S(=O)(c1ccccc1)N(CC(F)(F)F)c1ccc(C(O)(C(F)(F)F)C(F)(F)F)cc1 at 7 µM the values were UACC-62: 161; IPC-298: 56.0; WM1745: 165; LOX IMVI: 127; WM3619: 162.
For C#Cc1cccc(Nc2ncnc3cc(OCCOC)c(OCCOC)cc23)c1 at 4 µM the values were MZ2-MEL: 215; UACC-62: 169; IPC-298: 126; WM1745: 199; LOX IMVI: 124; WM3619: 197.
For CN(C)S(=O)(=O)c1ccc2c(c1)/C(=C/c1cc3c([nH]1)CCCC3)C(=O)N2 at 2 µM the values were MZ2-MEL: 203; UACC-62: 229; IPC-298: 163; WM1745: 235; LOX IMVI: 126; WM3619: 192.
For N#Cc1c(O)c2c(-c3ccc(-c4ccccc4O)cc3)csc2[nH]c1=O at 10 µM the values were MZ2-MEL: 70.6; UACC-62: 118; IPC-298: 42.5; WM1745: 266; LOX IMVI: 133; WM3619: 132.
For CC(=O)O[C@@]12CO[C@@H]1C[C@H](O)[C@@]1(C)C(=O)[C@H](O)C3=C(C)[C@@H](OC(=O)[C@H](O)[C@@H](NC(=O)OC(C)(C)C)c4ccccc4)C[C@@](O)([C@@H](OC(=O)c4ccccc4)[C@H]21)C3(C)C at 0.0005 µM the values were MZ2-MEL: 533; UACC-62: 234; IPC-298: 476; LOX IMVI: 142; WM3619: 197.
For Cc1cc(Nc2cc(N3CCN(C)CC3)nc(Sc3ccc(NC(=O)C4CC4)cc3)n2)n[nH]1 at 0.03 µM the values were MZ2-MEL: 364; UACC-62: 298; IPC-298: 42.6; LOX IMVI: 131; WM3619: 149.
For O=C(Oc1ccc([N+](=O)[O-])cc1)N1CCC(C(O)(c2ccc3c(c2)OCO3)c2ccc3c(c2)OCO3)CC1 at 5 µM the values were MZ2-MEL: 178; UACC-62: 123; IPC-298: 115; WM1745: 114; LOX IMVI: 42.9; WM3619: 213.
For C[As](C)SC[C@H](NC(=O)CC[C@H](N)C(=O)O)C(=O)NCC(=O)O at 2 µM the values were MZ2-MEL: 173; UACC-62: 566; IPC-298: 92.1; WM1745: 237; LOX IMVI: 182; WM3619: 152.

For reference, 3 entries once more:

{"second drug": "CCN(CC)CCNC(=O)c1c(C)[nH]c(/C=C2\\C(=O)Nc3ccc(F)cc32)c1C at 2 µM", "UACC-62": 192, "IPC-298": 40.0, "LOX IMVI": 121, "WM3619": 155}
{"second drug": "O=C(Oc1ccc([N+](=O)[O-])cc1)N1CCC(C(O)(c2ccc3c(c2)OCO3)c2ccc3c(c2)OCO3)CC1 at 5 µM", "MZ2-MEL": 178, "UACC-62": 123, "IPC-298": 115, "WM1745": 114, "LOX IMVI": 42.9, "WM3619": 213}
{"second drug": "O=C(Nc1cc(C(F)(F)F)cc(C(F)(F)F)c1)c1cc(Cl)ccc1O at 0.08 µM", "MZ2-MEL": 142, "UACC-62": 196, "IPC-298": 193, "LOX IMVI": 553, "WM3619": 130}

Source: doi:10.1371/journal.pone.0140310, primary screening data, rounded.